PubChem BioAssay AID504804 | Drosophila RNAi Screening Center – 2011
Purpose: 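Fly genes whose loss lessens doxorubicin-driven cell death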 (primary screen). Cells: Drosophila Kc cells. Knock-down reagent: long dsRNA against Drosophila genes, 0.5 µg dsRNA per well. Duration: 96 h (48 h knock-down, then 48 h drug). Treatment: doxorubicin 5 µg/ml for 48 h, added 48 h after dsRNA. Measurement: 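Luminescent ATP counts per replicate, not normalised, reflecting viable cells after 48 h dsRNA knock-down followed by 48 h of 5 µg/ml doxorubicin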. Reading the numbers: raw ATP luminescence: higher = more viable cells, protection from doxorubicin. Rule for the call: 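z-score of 2 or more over plate mean in both duplicates, retained only when retests and separate dsRNAs confirm the protection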.
The screen tested about 19,000 reagents; this is an unselected part of those with a known target gene and a result. Of all reagents, 47 (0.25%) got an active call. 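Signals are raw, not normalised; exact z-scores behind calls not deposited; actives needed confirmation, so some wells reaching 2 SD are inactive.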 A plus sign joins genes that one reagent is predicted to hit. No sequences are given here.

What is on record for CG10154 [DRSC09707]?
raw ATP luminescence, replicate 1: 78840; raw ATP luminescence, replicate 2: 68637; outcome: inactive

What is on record for nAChRalpha6 (nicotinic Acetylcholine Receptor alpha6) [DRSC01096]?
raw ATP luminescence, replicate 1: 2.90e5; raw ATP luminescence, replicate 2: 2.98e5; outcome: inactive

What did the screen give for nAChRalpha6 (nicotinic Acetylcholine Receptor alpha6) [DRSC02738]?
raw ATP luminescence, replicate 1: 66523; raw ATP luminescence, replicate 2: 56450; outcome: inactive

With CG18262 [DRSC18149], what was measured?
raw ATP luminescence, replicate 1: 35050; raw ATP luminescence, replicate 2: 42570; outcome: inactive

With tacc (transforming acidic coiled-coil protein) [DRSC12019], what was measured?
raw ATP luminescence, replicate 1: 37930; raw ATP luminescence, replicate 2: 48087; outcome: inactive

With tacc (transforming acidic coiled-coil protein) [DRSC12388], how do the results read?
raw ATP luminescence, replicate 1: 21190; raw ATP luminescence, replicate 2: 19317; outcome: inactive

How did the screen score mGluR (metabotropic Glutamate Receptor) [DRSC17215]?
raw ATP luminescence, replicate 1: 50080; raw ATP luminescence, replicate 2: 56510; outcome: inactive

With CG3894 [DRSC01762], what was measured?
raw ATP luminescence, replicate 1: 60300; raw ATP luminescence, replicate 2: 55917; outcome: inactive

For CG3894 [DRSC04012], what does the deposit list?
raw ATP luminescence, replicate 1: 73473; raw ATP luminescence, replicate 2: 81670; outcome: inactive

What is on record for CG3894 [DRSC04429]?
SD above plate mean: at least 3 SD above plate mean; raw ATP luminescence, replicate 1: 1.04e5; raw ATP luminescence, replicate 2: 85130; outcome: active

With Got1 (Glutamate oxaloacetate transaminase 1) [DRSC07177], what was measured?
raw ATP luminescence, replicate 1: 56713; raw ATP luminescence, replicate 2: 73743; outcome: inactive

With CG14471 (retired record) [DRSC04865], what does the deposit list?
raw ATP luminescence, replicate 1: 66957; raw ATP luminescence, replicate 2: 52987; outcome: inactive

Which result is listed for Kdm4A (Lysine demethylase 4A) [DRSC06586]?
raw ATP luminescence, replicate 1: 60237; raw ATP luminescence, replicate 2: 66840; outcome: inactive

What is on record for js (jiangshi) [DRSC15004]?
raw ATP luminescence, replicate 1: 83710; raw ATP luminescence, replicate 2: 66810; outcome: inactive

For MFS14 (Major Facilitator Superfamily Transporter 14) [DRSC06524], how do the results read?
raw ATP luminescence, replicate 1: 75353; raw ATP luminescence, replicate 2: 66053; outcome: inactive

How did the screen score CG2150 [DRSC15420]?
raw ATP luminescence, replicate 1: 64830; raw ATP luminescence, replicate 2: 76970; outcome: inactive

What is on record for Nep4 (Neprilysin 4) [DRSC15539]?
raw ATP luminescence, replicate 1: 39850; raw ATP luminescence, replicate 2: 32497; outcome: inactive

Which result is listed for CG5050 [DRSC02807]?
raw ATP luminescence, replicate 1: 63290; raw ATP luminescence, replicate 2: 72757; outcome: inactive

How did the screen score CG13062 [DRSC09945]?
raw ATP luminescence, replicate 1: 55427; raw ATP luminescence, replicate 2: 49907; outcome: inactive

With ap (apterous) [DRSC04917], what does the deposit list?
raw ATP luminescence, replicate 1: 78570; raw ATP luminescence, replicate 2: 61663; outcome: inactive

How did the screen score CG30466 [DRSC05556]?
raw ATP luminescence, replicate 1: 1.31e5; raw ATP luminescence, replicate 2: 1.15e5; outcome: inactive

With Ns4 (Nucleostemin 4) [DRSC03199], how do the results read?
raw ATP luminescence, replicate 1: 91320; raw ATP luminescence, replicate 2: 73330; outcome: inactive

With CG30065 [DRSC05420], what was measured?
raw ATP luminescence, replicate 1: 74533; raw ATP luminescence, replicate 2: 85407; outcome: inactive

How did the screen score Ilp1 (Insulin-like peptide 1) [DRSC10174]?
raw ATP luminescence, replicate 1: 60850; raw ATP luminescence, replicate 2: 73597; outcome: inactive

What is on record for Rpt1 (Regulatory particle triple-A ATPase 1) [DRSC07542]?
raw ATP luminescence, replicate 1: 46233; raw ATP luminescence, replicate 2: 49707; outcome: inactive

Which result is listed for RpL23 (Ribosomal protein L23) [DRSC04648]?
raw ATP luminescence, replicate 1: 30610; raw ATP luminescence, replicate 2: 28033; outcome: inactive

How did the screen score Nct (Nicastrin) [DRSC16172]?
raw ATP luminescence, replicate 1: 40617; raw ATP luminescence, replicate 2: 41937; outcome: inactive

How did the screen score asRNA:CR42547 + CG15674 [DRSC04264]?
raw ATP luminescence, replicate 1: 68163; raw ATP luminescence, replicate 2: 62397; outcome: inactive
